Reference: the supplement of paper PMC10849652
The list shows a part of the results.

Protein sequences, listed by entry. Tags and fused reporters are not part of them. Lines headed by an entry give the natural chain unless they say otherwise; changes in a name come on top.
UniProt O00635: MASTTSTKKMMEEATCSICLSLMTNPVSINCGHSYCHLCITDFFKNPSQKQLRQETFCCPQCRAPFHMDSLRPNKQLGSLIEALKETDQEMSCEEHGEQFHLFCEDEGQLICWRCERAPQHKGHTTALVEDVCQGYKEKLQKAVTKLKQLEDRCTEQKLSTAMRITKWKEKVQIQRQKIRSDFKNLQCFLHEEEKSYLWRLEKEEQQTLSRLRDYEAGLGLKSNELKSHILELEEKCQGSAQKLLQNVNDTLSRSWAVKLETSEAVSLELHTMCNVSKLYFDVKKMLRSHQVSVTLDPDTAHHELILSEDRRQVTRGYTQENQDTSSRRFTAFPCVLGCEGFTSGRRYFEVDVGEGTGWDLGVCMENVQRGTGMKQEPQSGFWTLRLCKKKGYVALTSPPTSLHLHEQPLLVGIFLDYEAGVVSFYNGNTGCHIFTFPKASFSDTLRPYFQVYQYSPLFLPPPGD
UniProt Q9H3S4: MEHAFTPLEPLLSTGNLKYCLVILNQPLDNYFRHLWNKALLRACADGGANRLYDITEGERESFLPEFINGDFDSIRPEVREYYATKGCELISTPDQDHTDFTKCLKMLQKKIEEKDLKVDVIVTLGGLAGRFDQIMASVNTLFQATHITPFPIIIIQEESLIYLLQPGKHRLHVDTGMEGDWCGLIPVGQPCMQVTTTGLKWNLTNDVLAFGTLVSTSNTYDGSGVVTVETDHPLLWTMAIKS
UniProt Q13625: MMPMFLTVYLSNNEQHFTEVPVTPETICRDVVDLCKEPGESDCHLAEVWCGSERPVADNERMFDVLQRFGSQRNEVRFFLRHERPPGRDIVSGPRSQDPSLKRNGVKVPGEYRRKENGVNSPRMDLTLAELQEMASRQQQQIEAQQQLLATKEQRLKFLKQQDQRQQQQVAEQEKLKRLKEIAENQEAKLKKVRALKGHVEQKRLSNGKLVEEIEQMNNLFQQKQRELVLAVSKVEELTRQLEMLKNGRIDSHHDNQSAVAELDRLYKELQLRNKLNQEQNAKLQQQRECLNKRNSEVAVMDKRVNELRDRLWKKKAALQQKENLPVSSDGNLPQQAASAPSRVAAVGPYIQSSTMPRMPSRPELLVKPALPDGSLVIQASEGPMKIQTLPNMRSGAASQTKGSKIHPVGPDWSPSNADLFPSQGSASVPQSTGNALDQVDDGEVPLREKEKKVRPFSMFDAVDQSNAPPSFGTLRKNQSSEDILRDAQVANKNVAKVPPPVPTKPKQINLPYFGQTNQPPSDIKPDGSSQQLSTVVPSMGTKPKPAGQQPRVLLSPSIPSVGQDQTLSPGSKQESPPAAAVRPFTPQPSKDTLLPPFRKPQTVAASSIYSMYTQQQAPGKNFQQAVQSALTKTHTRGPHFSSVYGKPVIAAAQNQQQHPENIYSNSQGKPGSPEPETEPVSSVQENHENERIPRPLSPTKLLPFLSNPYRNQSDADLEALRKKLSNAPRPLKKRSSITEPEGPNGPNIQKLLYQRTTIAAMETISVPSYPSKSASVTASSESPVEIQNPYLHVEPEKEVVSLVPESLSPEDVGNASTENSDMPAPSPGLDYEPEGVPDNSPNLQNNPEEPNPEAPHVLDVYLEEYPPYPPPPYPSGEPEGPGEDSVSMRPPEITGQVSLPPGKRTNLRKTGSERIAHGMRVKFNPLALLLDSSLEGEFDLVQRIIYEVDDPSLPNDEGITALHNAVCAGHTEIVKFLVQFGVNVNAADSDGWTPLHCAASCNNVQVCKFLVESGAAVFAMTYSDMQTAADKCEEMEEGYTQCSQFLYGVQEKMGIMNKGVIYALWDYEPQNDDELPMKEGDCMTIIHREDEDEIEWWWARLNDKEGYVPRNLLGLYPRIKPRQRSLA
UniProt Q8TEL6: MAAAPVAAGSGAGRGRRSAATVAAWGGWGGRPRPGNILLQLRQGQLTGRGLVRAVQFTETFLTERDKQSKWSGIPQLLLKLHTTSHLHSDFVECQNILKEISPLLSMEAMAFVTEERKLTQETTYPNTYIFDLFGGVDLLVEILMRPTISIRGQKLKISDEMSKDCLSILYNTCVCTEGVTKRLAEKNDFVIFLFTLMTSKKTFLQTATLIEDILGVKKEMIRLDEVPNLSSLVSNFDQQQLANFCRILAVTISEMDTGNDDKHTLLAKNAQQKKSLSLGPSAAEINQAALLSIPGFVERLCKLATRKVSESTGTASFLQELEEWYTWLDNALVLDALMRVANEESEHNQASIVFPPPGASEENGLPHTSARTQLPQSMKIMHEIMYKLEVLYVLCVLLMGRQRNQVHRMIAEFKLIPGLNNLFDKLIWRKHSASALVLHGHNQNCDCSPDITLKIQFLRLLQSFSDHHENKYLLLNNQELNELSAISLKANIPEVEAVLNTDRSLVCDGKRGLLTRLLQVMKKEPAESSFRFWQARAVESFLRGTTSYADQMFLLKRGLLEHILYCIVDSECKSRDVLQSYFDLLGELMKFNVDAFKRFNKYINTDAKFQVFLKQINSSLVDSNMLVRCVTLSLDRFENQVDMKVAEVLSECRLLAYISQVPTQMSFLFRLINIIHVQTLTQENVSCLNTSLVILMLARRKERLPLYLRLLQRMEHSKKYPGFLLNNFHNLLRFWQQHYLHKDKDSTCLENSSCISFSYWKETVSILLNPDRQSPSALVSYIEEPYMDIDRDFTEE
UniProt O43399: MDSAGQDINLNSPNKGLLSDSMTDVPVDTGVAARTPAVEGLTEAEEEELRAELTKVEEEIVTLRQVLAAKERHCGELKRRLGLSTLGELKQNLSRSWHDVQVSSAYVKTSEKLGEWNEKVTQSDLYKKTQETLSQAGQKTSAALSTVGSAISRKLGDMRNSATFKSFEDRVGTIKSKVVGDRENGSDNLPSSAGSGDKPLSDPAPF
UniProt Q9UPQ9, whole entry, looked up: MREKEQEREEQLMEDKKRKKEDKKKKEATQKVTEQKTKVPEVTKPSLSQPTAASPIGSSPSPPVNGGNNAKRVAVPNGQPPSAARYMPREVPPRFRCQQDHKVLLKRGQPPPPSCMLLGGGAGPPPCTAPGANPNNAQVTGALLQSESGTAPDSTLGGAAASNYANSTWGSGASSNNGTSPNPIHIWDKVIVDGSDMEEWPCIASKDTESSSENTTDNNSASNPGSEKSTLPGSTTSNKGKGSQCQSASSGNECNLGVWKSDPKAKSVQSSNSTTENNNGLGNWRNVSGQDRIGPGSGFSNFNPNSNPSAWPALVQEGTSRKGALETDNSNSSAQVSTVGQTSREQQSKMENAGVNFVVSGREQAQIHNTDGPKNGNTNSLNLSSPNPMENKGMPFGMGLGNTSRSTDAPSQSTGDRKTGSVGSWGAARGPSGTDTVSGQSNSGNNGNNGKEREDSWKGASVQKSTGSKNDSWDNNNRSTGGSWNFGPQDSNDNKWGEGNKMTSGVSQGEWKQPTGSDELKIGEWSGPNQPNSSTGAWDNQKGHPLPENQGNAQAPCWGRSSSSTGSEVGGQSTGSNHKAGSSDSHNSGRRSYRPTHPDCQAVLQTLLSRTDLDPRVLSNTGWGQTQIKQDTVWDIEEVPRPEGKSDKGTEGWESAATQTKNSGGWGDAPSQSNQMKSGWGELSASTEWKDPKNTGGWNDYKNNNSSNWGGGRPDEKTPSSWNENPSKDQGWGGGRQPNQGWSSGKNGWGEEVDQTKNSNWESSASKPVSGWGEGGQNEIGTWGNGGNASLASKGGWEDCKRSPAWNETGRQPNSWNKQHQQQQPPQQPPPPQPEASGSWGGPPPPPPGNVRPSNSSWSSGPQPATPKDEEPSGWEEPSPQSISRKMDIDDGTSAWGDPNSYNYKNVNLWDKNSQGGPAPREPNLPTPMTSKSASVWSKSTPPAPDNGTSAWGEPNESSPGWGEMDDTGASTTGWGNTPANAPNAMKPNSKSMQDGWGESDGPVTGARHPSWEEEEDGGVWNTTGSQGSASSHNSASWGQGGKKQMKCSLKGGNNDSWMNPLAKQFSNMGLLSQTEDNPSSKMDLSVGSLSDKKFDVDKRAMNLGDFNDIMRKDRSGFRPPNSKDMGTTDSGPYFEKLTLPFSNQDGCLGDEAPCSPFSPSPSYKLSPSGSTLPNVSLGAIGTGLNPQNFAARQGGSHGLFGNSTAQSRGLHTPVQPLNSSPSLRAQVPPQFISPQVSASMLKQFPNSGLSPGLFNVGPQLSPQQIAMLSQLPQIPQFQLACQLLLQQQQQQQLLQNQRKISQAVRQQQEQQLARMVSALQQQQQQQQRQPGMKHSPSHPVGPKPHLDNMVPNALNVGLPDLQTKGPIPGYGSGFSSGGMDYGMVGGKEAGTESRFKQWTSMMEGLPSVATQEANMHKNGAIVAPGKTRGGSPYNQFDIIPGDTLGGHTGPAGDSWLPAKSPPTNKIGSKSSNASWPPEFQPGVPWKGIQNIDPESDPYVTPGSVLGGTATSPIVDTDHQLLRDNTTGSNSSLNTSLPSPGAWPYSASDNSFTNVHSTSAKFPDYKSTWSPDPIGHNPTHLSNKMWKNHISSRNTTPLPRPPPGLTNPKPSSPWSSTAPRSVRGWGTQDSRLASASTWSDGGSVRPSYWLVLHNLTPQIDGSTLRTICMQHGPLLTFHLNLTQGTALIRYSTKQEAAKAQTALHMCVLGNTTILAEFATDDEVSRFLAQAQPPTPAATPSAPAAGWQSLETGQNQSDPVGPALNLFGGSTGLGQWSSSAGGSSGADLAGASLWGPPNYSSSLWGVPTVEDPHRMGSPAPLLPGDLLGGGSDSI
UniProt Q13595: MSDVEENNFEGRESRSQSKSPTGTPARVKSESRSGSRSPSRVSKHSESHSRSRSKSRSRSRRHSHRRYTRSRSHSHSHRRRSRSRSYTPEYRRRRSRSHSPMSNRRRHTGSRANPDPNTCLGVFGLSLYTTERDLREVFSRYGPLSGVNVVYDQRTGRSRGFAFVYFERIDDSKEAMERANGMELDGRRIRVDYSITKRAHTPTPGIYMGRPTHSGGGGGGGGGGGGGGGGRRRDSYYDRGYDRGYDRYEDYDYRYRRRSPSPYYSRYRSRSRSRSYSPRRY
UniProt Q629K1: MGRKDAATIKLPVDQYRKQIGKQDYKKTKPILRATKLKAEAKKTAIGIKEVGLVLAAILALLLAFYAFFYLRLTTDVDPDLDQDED
UniProt Q8TD43: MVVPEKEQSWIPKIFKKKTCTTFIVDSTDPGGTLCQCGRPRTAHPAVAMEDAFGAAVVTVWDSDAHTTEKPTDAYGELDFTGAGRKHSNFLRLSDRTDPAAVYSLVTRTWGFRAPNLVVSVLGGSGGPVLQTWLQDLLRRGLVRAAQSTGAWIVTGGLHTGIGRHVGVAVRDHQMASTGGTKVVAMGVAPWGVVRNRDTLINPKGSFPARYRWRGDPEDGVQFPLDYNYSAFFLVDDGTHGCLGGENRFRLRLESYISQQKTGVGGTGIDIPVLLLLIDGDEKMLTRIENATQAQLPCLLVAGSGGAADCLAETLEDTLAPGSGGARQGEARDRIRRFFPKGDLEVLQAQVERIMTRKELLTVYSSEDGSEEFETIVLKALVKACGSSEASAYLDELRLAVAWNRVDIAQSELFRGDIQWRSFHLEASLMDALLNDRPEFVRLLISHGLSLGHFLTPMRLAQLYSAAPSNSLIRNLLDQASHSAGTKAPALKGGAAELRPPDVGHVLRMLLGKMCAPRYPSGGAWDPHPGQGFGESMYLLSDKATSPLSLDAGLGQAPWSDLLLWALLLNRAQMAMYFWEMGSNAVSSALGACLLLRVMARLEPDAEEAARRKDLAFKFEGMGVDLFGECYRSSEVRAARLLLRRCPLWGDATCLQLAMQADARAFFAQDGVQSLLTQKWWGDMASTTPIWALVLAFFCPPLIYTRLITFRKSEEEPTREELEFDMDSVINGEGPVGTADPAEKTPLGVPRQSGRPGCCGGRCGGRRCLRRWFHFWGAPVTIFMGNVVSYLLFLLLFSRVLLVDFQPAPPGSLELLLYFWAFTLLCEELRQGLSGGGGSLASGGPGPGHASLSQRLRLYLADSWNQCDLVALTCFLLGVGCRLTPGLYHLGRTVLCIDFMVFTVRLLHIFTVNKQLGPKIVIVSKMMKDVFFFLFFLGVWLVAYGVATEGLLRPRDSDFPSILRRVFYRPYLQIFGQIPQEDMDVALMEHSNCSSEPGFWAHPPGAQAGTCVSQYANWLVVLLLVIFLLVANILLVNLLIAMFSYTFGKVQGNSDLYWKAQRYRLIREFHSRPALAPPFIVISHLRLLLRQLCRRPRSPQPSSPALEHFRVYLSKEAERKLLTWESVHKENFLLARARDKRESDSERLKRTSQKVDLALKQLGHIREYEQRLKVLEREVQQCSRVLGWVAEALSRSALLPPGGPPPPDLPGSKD
UniProt O95900: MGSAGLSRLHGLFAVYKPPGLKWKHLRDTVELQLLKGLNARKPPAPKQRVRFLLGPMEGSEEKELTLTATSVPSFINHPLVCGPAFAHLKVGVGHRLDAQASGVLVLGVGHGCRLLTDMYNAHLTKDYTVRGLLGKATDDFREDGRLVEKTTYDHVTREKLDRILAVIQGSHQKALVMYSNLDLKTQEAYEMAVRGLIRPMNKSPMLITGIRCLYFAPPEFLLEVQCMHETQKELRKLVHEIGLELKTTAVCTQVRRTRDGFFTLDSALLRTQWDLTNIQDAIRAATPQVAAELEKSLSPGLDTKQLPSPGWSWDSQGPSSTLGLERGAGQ

Compound: CN(C)CC(=O)Nc1ccc2[nH]c(=O)c3ccccc3c2c1
Test: log2 fold change, soluble protein after heating vs DMSO (PISA); higher = thermal stabilisation; K562 cells, 10 uM, 30 min; active = over 0.2 and 3.5 SD of the protein, either way, in both replicates (recomputed)
Method in brief: (§1)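 K562 cells at 2×10^6 cells/mL were given 10 μM compound for 30 min. Aliquots then went through 3 min of heating across 48°C-58°C, were pooled, and were extracted in PBS with 0.5% NP-40 at 4°C, and the supernatant after 21,000xg for 90 min was quantified by TMTpro 16plex LC-MS/MS with channel sums equalised. Thermal stability relative to control samples, from duplicates, is given as log2 fold change.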

log2 fold change, inactive:
TOM1L2 (UniProt Q6ZVM7) 0.127
TRIM38 (UniProt O00635) -0.045
TRIM65 (UniProt Q6PJ69) -0.284
TPK1 (UniProt Q9H3S4) 0.053
TRAF7 (UniProt Q6Q0C0) -0.056
TRIM41 (UniProt Q8WV44) 0.38
TP53BP2 isoform 3 (UniProt Q13625) -0.007
TRPC4AP (UniProt Q8TEL6) -0.08
TPRA1 (UniProt Q86W33) -0.035
TPD52L2 isoform 3 (UniProt O43399) -0.029
TRIM5 (UniProt Q9C035) -0.005
TRADD (UniProt Q15628) 0.136
TPCN1 isoform 3 (UniProt Q9ULQ1) -0.114
TRAF3 (UniProt Q13114) -0.049
TRAF3IP1 (UniProt Q8TDR0) 0.05
TRAPPC2 isoform 3 (UniProt P0DI81) -0.063

Compound: CN(CCOC1=CC=C(C=C1)C[C@H]2C(=O)NC(=O)S2)C3=CC=CC=N3 (racemic) [rosiglitazone]
Test: as above
Method in brief: as §1

log2 fold change, inactive:
TNRC6B (UniProt Q9UPQ9) -0.157
TRIM38 (UniProt O00635) -0.019
TPK1 (UniProt Q9H3S4) 0.04
TRAF7 (UniProt Q6Q0C0) -0.009
TP53BP2 isoform 3 (UniProt Q13625) -0.071
TREML2 (UniProt Q5T2D2) 0.151
TRA2A (UniProt Q13595) 0.274
TPD52 isoform 3 (UniProt P55327) -0.447
TRIM21 (UniProt P19474) 0.058
TPCN1 isoform 3 (UniProt Q9ULQ1) -0.003
TNK2 isoform 3 (UniProt Q07912) -0.125
TRAPPC2 isoform 3 (UniProt P0DI81) -0.018
TROAP (UniProt Q12815) 0.064

Compound: CN1C2=C(C3=C1C(=O)N(N=C3)CC4=CC(=CC=C4)N)SC(=C2)S(=O)C
Test: as above
Method in brief: as §1

log2 fold change, inactive:
TOM1L2 (UniProt Q6ZVM7) -0.071
TNRC6B (UniProt Q9UPQ9) 0.201
TRIM38 (UniProt O00635) 0.006
TRIM65 (UniProt Q6PJ69) 0.043
TRIQK (UniProt Q629K1) -0.04
TRPM4 (UniProt Q8TD43) 0.073
TPK1 (UniProt Q9H3S4) -0.123
TP53BP2 isoform 3 (UniProt Q13625) 0.038
TRPC4AP (UniProt Q8TEL6) -0.062
TREML2 (UniProt Q5T2D2) -0.002
TPD52 isoform 3 (UniProt P55327) 0.035
TRIM21 (UniProt P19474) -0.022
TNKS (UniProt O95271) 0.052
TRIM5 (UniProt Q9C035) 0.25
TRADD (UniProt Q15628) 0.084
TPCN1 isoform 3 (UniProt Q9ULQ1) 0.039
TNK2 isoform 3 (UniProt Q07912) -0.037
TRAF3IP1 (UniProt Q8TDR0) 0.054
TRAPPC2 isoform 3 (UniProt P0DI81) -0.085
TRUB2 (UniProt O95900) 0.01
